Some of these results come from one statement about several compounds together.
Molecular target: DNA-PK (Homo sapiens, UniProt P78527)
Test: DNA-PK inhibition assay (radiometric 33P-ATP kinase assay)
Assay type: biochemical
Conditions: 100 μM ATP; competitive tight-binding fit

Chains of the proteins cited; added tags and fusions are not shown.
UniProt P78527, whole entry: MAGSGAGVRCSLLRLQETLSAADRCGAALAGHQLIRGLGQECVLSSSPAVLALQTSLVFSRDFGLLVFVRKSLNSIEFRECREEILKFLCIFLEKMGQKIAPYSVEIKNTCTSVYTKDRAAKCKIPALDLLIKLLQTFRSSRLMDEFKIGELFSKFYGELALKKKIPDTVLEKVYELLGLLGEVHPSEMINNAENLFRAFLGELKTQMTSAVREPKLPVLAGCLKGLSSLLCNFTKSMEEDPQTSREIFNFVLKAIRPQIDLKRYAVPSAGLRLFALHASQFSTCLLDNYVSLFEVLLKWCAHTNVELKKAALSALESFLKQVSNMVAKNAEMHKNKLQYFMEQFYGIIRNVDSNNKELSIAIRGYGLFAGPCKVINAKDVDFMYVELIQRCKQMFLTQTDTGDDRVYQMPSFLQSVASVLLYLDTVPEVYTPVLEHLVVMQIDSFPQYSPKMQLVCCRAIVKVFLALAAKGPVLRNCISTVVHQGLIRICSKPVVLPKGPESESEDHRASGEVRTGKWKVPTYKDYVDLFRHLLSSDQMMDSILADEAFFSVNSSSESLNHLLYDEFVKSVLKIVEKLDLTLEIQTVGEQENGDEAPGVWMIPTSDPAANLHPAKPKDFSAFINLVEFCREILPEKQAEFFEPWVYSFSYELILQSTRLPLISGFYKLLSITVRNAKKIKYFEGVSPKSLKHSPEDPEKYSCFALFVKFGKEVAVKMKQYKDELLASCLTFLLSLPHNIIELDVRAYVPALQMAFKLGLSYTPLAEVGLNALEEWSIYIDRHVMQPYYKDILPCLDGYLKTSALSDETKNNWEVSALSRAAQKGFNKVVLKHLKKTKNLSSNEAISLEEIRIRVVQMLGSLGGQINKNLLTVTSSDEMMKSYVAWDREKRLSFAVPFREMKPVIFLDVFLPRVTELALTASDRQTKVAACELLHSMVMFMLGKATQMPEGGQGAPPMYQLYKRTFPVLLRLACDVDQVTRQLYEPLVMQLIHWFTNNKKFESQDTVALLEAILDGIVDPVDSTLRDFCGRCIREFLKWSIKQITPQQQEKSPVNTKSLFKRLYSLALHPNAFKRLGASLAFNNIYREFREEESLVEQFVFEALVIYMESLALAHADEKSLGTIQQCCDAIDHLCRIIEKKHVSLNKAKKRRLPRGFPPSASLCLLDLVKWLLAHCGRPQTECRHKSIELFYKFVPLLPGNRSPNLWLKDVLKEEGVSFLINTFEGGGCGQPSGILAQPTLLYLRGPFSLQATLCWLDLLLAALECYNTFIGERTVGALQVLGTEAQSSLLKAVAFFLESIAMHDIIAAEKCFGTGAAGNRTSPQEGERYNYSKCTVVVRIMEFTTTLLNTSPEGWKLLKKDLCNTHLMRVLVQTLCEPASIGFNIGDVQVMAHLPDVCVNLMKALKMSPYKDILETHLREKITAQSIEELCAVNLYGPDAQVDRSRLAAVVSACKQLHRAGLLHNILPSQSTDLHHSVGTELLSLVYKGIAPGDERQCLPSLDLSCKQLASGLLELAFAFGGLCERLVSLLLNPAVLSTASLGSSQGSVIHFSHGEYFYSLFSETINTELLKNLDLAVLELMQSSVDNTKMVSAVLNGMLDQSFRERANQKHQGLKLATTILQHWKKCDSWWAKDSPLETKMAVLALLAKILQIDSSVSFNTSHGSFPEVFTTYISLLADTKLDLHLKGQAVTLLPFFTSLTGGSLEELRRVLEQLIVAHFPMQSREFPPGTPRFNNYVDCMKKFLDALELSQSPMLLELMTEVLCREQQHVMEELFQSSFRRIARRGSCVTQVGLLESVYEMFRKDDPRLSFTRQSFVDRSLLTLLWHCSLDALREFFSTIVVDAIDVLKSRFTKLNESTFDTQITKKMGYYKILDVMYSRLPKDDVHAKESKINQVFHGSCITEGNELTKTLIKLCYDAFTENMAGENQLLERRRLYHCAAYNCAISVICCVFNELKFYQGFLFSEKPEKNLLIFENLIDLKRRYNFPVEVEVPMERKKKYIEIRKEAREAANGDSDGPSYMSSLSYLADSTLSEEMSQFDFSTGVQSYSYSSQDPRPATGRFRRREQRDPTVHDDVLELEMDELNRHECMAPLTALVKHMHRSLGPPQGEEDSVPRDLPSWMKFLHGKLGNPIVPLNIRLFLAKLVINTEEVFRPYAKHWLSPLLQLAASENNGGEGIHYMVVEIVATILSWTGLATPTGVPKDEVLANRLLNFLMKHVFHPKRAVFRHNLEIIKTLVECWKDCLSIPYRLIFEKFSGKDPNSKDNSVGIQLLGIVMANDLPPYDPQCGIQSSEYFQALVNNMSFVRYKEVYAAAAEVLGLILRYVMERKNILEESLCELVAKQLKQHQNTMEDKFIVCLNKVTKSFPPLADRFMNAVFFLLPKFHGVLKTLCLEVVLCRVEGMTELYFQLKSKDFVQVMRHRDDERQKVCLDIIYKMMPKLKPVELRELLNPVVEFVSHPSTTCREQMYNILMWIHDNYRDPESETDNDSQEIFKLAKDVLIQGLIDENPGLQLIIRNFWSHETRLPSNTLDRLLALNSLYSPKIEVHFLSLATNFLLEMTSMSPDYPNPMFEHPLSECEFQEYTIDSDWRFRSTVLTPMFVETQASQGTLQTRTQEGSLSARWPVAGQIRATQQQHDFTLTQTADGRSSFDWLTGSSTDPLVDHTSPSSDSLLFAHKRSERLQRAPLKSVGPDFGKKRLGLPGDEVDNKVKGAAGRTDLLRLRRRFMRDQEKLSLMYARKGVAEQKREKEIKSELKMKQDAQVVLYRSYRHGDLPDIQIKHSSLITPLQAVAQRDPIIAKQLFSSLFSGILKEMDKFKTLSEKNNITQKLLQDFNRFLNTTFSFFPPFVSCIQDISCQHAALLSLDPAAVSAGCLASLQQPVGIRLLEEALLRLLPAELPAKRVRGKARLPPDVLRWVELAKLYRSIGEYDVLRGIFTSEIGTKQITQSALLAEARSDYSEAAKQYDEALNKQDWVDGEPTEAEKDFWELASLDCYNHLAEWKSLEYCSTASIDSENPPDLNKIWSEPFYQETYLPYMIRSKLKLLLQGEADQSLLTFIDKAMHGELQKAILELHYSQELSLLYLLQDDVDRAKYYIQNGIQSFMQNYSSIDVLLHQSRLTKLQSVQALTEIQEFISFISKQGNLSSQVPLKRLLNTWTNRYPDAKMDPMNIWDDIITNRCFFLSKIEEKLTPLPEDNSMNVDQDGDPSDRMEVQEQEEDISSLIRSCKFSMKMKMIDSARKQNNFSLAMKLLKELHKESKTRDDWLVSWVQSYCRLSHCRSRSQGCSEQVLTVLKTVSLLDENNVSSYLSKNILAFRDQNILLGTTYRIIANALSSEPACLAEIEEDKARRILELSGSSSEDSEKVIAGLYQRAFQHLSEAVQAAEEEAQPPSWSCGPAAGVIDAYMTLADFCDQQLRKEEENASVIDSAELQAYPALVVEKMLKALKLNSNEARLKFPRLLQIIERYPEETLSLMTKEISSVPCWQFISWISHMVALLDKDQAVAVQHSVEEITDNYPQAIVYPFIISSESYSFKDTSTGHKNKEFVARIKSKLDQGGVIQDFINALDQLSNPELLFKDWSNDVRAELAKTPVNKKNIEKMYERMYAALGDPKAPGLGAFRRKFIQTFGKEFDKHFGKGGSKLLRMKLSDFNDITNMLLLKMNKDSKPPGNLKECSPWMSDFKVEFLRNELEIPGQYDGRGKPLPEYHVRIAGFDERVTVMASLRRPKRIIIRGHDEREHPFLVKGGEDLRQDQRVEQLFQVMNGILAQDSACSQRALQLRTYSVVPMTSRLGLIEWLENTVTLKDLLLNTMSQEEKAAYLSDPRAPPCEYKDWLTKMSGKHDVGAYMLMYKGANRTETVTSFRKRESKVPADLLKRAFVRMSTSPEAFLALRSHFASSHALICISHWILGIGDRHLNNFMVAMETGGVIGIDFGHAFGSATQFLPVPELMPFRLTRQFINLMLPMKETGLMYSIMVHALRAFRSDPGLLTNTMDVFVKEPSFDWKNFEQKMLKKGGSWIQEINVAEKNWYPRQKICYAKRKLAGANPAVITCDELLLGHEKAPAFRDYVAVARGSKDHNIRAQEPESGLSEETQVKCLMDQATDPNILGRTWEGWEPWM

Ki, ≤ 300 nM:
CNC(=O)c1ccnc2c([C@H](C)CNc3cc(-c4cnc(C)nc4)ncn3)cccc12 [Compound 578, (S)—N-methyl-8-(1-((2′-methyl-[4,5′-bipyrimidin]-6-yl)amino)propan-2-yl)quinoline-4-carboxamide]
CCC(=O)Nc1ccc(C(C)CNc2cc(-c3ccc(C)nc3)ncn2)c(OC)c1 (stereo not drawn) [Compound 187]
CNC(=O)c1ccc(C(C)CNc2cc(-c3ccc(OCCSC)nc3)ncn2)c(OC)c1 (stereo not drawn) [Compound 323]
CNC(=O)c1ccnc2c([C@H](C)CNc3cc(-c4cnc(NC(C)C)nc4)ncn3)cccc12 [Compound 618]
CNC(=O)c1ccnc2c([C@H](C)CNc3cc(N4CC(=O)NC5(CC5)C4)ncn3)cccc12 [Compound 739]
C[C@H](CNc1cc(-c2cnc(F)c(N)c2)ncn1)c1ccnc2c1OCCO2 [Compound 554]
Cc1ccc(-c2cc(NC[C@@H](C)c3cccc4c(CO)ccnc34)ncn2)cn1 [Compound 568]
COc1nc(N)ncc1[C@H](C)CNc1cc(-c2ccc(C)nc2)ncn1 [Compound 475]
Cc1ccc(-c2cc(NCC(C)c3ccnc4c(C)ccnc34)ncn2)cn1 (stereo not drawn) [Compound 448]
COc1ccccc1CCNc1cc(-c2ccc(N3CCCCC3)nc2)ncn1 [Compound 47]
CNC(=O)c1ccnc2c([C@H](C)CNc3cc(-c4cc(OC)nc(OC)c4)ncn3)cccc12 [Compound 889]
CNC(=O)c1ccc([C@H](C)CNc2cc(-c3ccc(NCCN(C)C)nc3)ncn2)c(OC)c1 [Compound 369]
CNc1ncc(-c2cc(NC[C@@H](C)c3ccnc4cccnc34)ncn2)cn1 [Compound 497]
CCCNc1ccc(-c2cc(NC[C@@H](C)c3ccc(C(=O)NC)cc3OC)ncn2)cn1 [Compound 361]
CNC(=O)c1ccnc2c([C@H](C)CNc3cc(-c4ccc(OC)c(F)c4)ncn3)cccc12 [Compound 823]
COc1cc(C)ccc1C(C)CNc1cc(-c2ccc(C)nc2)ncn1 (stereo not drawn) [Compound 379]
COc1ccccc1[C@H](C)CNc1cc(-c2ccc(Nc3nc[nH]n3)nc2)ncn1 [Compound 198]
Cc1ccc(-c2cc(NCC(C)c3cccc4ncoc34)ncn2)cn1 (stereo not drawn) [Compound 422]
CNC(=O)c1c(F)cnc2c([C@H](C)CNc3cc(-c4cnc(NC5CCN(CC(F)(F)F)CC5)nc4)ncn3)cccc12 [Compound 1036]
Cc1cc([C@H](C)CNc2cc(-c3ccc4ncccc4c3)ncn2)c2c(n1)CCO2 [Compound 508]
COc1ccc(SC)cc1CCNc1cc(-c2ccc(N3CCN(C(C)=O)CC3)nc2)ncn1 [Compound 61]
CNC(=O)c1ccnc2c([C@H](C)CNc3cc(-c4ccc(C5CCC5)nc4)ncn3)ccc(F)c12 [Compound 850]
CNC(=O)c1c(F)cnc2c([C@H](C)CNc3cc(-c4cnc(N(C)C5CCN(CC(F)F)CC5)nc4)ncn3)cccc12 [Compound 1062]
CC(CNc1cc(-c2cnc3c(cnn3C3CCN(C)CC3)c2)ncn1)c1ccccc1O (stereo not drawn) [Compound 151]
CNC(=O)c1ccnc2c([C@H](C)CNc3cc(-c4cnc(NC5CCN(C)CC5)nc4)ncn3)cccc12 [Compound 1078]
CNC(=O)c1ccc([C@H](C)CNc2cc(-c3ccc(C(C)=O)cc3)ncn2)c(OC)c1 [Compound 319]
Cc1ccc(-c2cc(NCC(C)c3ccc(F)cc3OC3CC3)ncn2)cn1 (stereo not drawn) [Compound 270]
CNC(=O)c1c(F)cnc2c([C@H](C)CNc3cc(-c4ccc(CC5CCN(C(C)=O)CC5)nc4)ncn3)cccc12 [Compound 1008]
COc1ccc(CCNc2cc(-c3ccc4ncccc4c3)ncn2)c(OC)c1 [Compound 28]
COc1ccc(N)cc1C(C)CNc1cc(-c2ccc(C)nc2)ncn1 (stereo not drawn) [Compound 290]
Cc1ccc(-c2cc(NCCc3cccc4c3OCC43CC3)ncn2)cn1 [Compound 74]
CNC(=O)c1c(F)cnc2c([C@H](C)CNc3cc(-c4cnc(NC5CCN(CC(F)F)CC5)nc4)ncn3)cccc12 [Compound 1037]
Cc1ccc(-c2cc(NC[C@@H](C)c3cccc4c(=O)n(C)cnc34)ncn2)cn1 [Compound 698]
CNC(=O)c1ccc([C@H](C)CNc2cc(-c3ccc(NC4CCN(C)CC4)nc3)ncn2)c(OC)c1 [Compound 348]
CCOc1ccccc1[C@H](C)CNc1cc(-c2ccc(C)nc2)ncn1 [Compound 110]
CNC(=O)c1ccnc2c([C@H](C)CNc3cc(-c4cnc(OC)c(COC)c4)ncn3)cccc12 [Compound 944]
COc1cc(SC)ccc1C(C)CNc1cc(-c2ccc(N3CCN(C(C)=O)CC3)nc2)ncn1 (stereo not drawn) [Compound 73]
CNC(=O)c1ccnc2c([C@H](C)CNc3cc(-c4ccn(C)c(=O)c4)ncn3)cccc12 [Compound 656]
[2H]c1nc(C)nc([2H])c1-c1cc(NC[C@@H](C)c2cccc3c(C(=O)NC)ccnc23)ncn1 [Compound 844, (S)—N-methyl-8-(1-((2′-methyl-4′,6′-dideutero-[4,5′-bipyrimidin]-6-yl)amino)propan-2-yl)quinoline-4-carboxamide]
CNC(=O)c1ccnc2c([C@H](C)CNc3cc(-c4cnc(C(C)(C)OC)nc4)ncn3)cccc12 [Compound 928]
CC(=O)Oc1ccccc1C(C)CNc1cc(-c2ccc(N3CCN(C(C)=O)CC3)nc2)ncn1 (stereo not drawn) [Compound 143]
CNC(=O)c1ccnc2c([C@H](C)CNc3cc(-c4cnc(OC(C)C)c(C)c4)ncn3)cccc12 [Compound 947]
Cc1ccc(-c2cc(NCC(C)c3ccnc4c3OCC4)ncn2)cn1 (stereo not drawn) [Compound 289]
C[C@H](CNc1cc(-c2ccc3ncccc3c2)ncn1)c1ccnc2c1OCCO2 [Compound 464]
CNC(=O)c1ccc([C@H](C)CNc2cc(-c3ccc(F)nc3)ncn2)c(OC)c1 [Compound 328]
C[C@H](CNc1cc(-c2cnc3[nH]ncc3c2)ncn1)c1ccnc2c1OCC2 [Compound 437]
CNC(=O)c1ccnc2c([C@H](C)CNc3cc(-c4ccc(C#N)nc4)ncn3)ccc(F)c12 [Compound 909]
CNC(=O)c1ccnc2c([C@H](C)CNc3cc(-c4ccnc(N5CCOCC5)c4)ncn3)cccc12 [Compound 818]
CNC(=O)c1ccnc2c([C@H](C)CNc3cc(-c4cccc(C)n4)ncn3)cccc12 [Compound 965]
CNC(=O)c1ccnc2c([C@H](C)CNc3cc(-c4ccc5c(c4)CCN(C(C)=O)C5)ncn3)cccc12 [Compound 803]
CNC(=O)c1ccnc2c([C@H](C)CNc3cc(-c4cnc(OC5CCN(C)CC5)nc4)ncn3)ccc(F)c12 [Compound 1073]
CNC(=O)c1ccc([C@H](C)CNc2cc(-c3ccc4c(cnn4C)c3)ncn2)c(OC)c1 [Compound 293]
COc1cc(C(=O)NCC(F)(F)F)ccc1C(C)CNc1cc(-c2ccc(C)nc2)ncn1 (stereo not drawn) [Compound 218]

Same assay, conditions: 100 μM ATP; competitive tight-binding fit; listed as compound 577

Ki, ≤ 300 nM:
Cc1ccc(-c2cc(NC[C@@H](C)c3ccnc4c3OCC4C)ncn2)cn1 (single isomer, unassigned) [Compound 577]

From patent publication US10442791B2, “DNA-PK inhibitors” (Vertex Pharmaceuticals Incorporated, priority 2012, dated 2019)
